Test results from the supplement of paper PMC6331611.
± gives the standard deviation of the averaged measurements. Over roughly 1,600 compounds, “normalized growth (OD600, IQM-normalized) in LPM” has its median near 1; the lowest 2% begin near 0.014. Some of the results follow.

test system: Salmonella enterica serovar Typhimurium SL1344; experiment: normalized growth (OD600, IQM-normalized) in LPM (fraction of plate interquartile mean); higher = more bacterial growth (less inhibition); settings: LPM pH 5.8; 10 µM; 16 h

Structure (SMILES)	normalized growth
NC(=O)c1ccccc1O	1 ± 0.012
Oc1c(Br)cc(Br)c2cccnc12	0.0441 ± 0.043
CN(C)[C@@H]1C(O)=C(C(N)=O)C(=O)[C@@]2(O)C(O)=C3C(=O)c4c(O)cccc4[C@@](C)(O)[C@H]3C[C@@H]12	0.0127 ± 0.00026
C[C@H](N[C@@H](CCc1ccccc1)C(=O)O)C(=O)N1CCC[C@H]1C(=O)O	0.827 ± 0.047
COCCCC/C(=N\OCCN)c1ccc(C(F)(F)F)cc1	0.84 ± 0.11
COC(=O)[C@H](c1ccccc1Cl)N1CCc2sccc2C1	0.979 ± 0.024
C[C@]12CCC(=O)C=C1CC[C@@H]1[C@@H]2C(=O)C[C@@]2(C)[C@H]1CC[C@]2(O)C(=O)CO	1 ± 0.026
NC(=O)N[C@@H](CCC(=O)O)C(=O)O	0.982 ± 0.016
CC(=O)[C@@]12O[C@](C)(c3ccccc3)O[C@@H]1C[C@H]1[C@@H]3CCC4=CC(=O)CC[C@]4(C)[C@H]3CC[C@@]12C	0.967 ± 0.06
CC(C)c1nc(N(C)S(C)(=O)=O)nc(-c2ccc(F)cc2)c1/C=C/[C@@H](O)C[C@@H](O)CC(=O)O	1.03 ± 0.097
Nc1ccc(S(=O)(=O)NC(=O)c2ccccc2)cc1	0.995 ± 0.04
C[N+](C)(C)CCOP(=O)(O)OP(=O)([O-])OC[C@H]1O[C@@H](n2ccc(N)nc2=O)[C@H](O)[C@@H]1O	1.04 ± 0.083
FCOC(C(F)(F)F)C(F)(F)F	0.92 ± 0.011
CCN(CC)CCCC(C)Nc1ccnc2cc(Cl)ccc12 (stereo unspecified)	1.14 ± 0.056
CS(=O)(=O)c1ccc([C@@H](O)[C@@H](CF)NC(=O)C(Cl)Cl)cc1	0.0094 ± 0.00019
Cc1cccc(C)c1NC(=O)c1ccccc1C(=O)O	1.15 ± 0.12
c1ccc2c(c1)CCCC2C1=NCCN1 (stereo unspecified)	1.06 ± 0.016
C[C@@H](O)[C@H]1C(=O)N2C(C(=O)O)=C(SCCNC=N)C[C@H]12	1.03 ± 0.081
Cc1ncc([N+](=O)[O-])n1C	0.99 ± 0.18
CCCCCN(C)CCC(O)(P(=O)(O)O)P(=O)(O)O	1.09 ± 0.081
C[Se]CC[C@H](N)C(=O)O	1.28 ± 0.072
C1N2CN3CN1CN(C2)C3	0.981 ± 0.077

Structure (SMILES)	normalized growth
CN(C)c1cnccn1	1.09 ± 0.013
CCn1cc(C(=O)O)c(=O)c2cc(F)c(N3CCNCC3)nc21	0.0514 ± 0.033
CC(=O)OCC(=O)NCCCOc1cccc(CN2CCCCC2)c1	1.07 ± 0.099
C=CCc1ccc(O)c(OC)c1	1.12 ± 0.12
OC[C@@H](O)[C@@H](O)[C@H](O)[C@H](O)CO	1.05 ± 0.022
O=C1OC(c2ccc(O)cc2)(c2ccc(O)cc2)c2ccccc21	1.07 ± 0.024
O=C(O)CN(CCN(CC(=O)O)CC(=O)O)CC(=O)O.[Na+].[Na+].[Na+]	0.0403 ± 0.013
CC(C(=O)O)c1cccc(Oc2ccccc2)c1 (stereo unspecified)	0.922 ± 0.0094
CCCc1ncc(C[n+]2ccccc2C)c(N)n1	0.977 ± 0.019
Cc1cn[nH]c1	0.962 ± 0.06
C[C@@H](O)CN(CCN(C[C@@H](C)O)C[C@@H](C)O)C[C@@H](C)O	1.17 ± 0.054
CC[N+](C)(C)c1cccc(O)c1	0.984 ± 0.071
Nc1[nH]cnc2ncnc1-2	0.993 ± 0.02
CC(=O)[C@@]1(O)CC[C@H]2[C@@H]3C=C(Cl)C4=CC(=O)[C@@H]5C[C@@H]5[C@]4(C)[C@H]3CC[C@@]21C	1.08 ± 0.17
O.O.O=C([O-])CN(CCN(CC(=O)[O-])CC(=O)O)CC(=O)O.[Na+].[Na+]	0.213 ± 0.012
CCCOc1cc(N)ccc1C(=O)OCCN(CC)CC	1.014 ± 0.0067
OC(Cn1cncn1)(Cn1cncn1)c1ccc(F)cc1F	1.15 ± 0.044
NCCc1c[nH]cn1	0.971 ± 0.038
CCN[C@H]1CN(CCCOC)S(=O)(=O)c2sc(S(N)(=O)=O)cc21	1.1 ± 0.029
CC(C)c1c(C(=O)Nc2ccccc2)c(-c2ccccc2)c(-c2ccc(F)cc2)n1CC[C@@H](O)C[C@@H](O)CC(=O)O	1.3 ± 0.041
CC(=O)OCC(=O)[C@@]1(O)CC[C@H]2[C@@H]3CCC4=CC(=O)CC[C@]4(C)[C@H]3[C@@H](O)C[C@@]21C	1.03 ± 0.045
CCCCCCCCCCCCCCCC(=O)OC/C=C(C)/C=C/C=C(C)/C=C/C1=C(C)CCCC1(C)C	0.988 ± 0.048

Structure (SMILES)	normalized growth
C=CC(N)CCC(=O)O (stereo unspecified)	1.19 ± 0.024
NS(=O)(=O)c1cc(C2(O)NC(=O)c3ccccc32)ccc1Cl (stereo unspecified)	1.09 ± 0.14
CC(=O)OCC(=O)[C@@]1(O)CC[C@H]2[C@@H]3CCC4=CC(=O)CC[C@]4(C)[C@@]3(F)[C@@H](O)C[C@@]21C	1.09 ± 0.11
O=C(O)CCCCCCCC(=O)O	0.864 ± 0.053
FC(F)(F)C(Cl)Br (stereo unspecified)	0.996 ± 0.069
O=C(O)CN1C(=O)c2cccc3cccc(c23)C1=O	0.982 ± 0.075
Cc1ccc(C(=O)c2ccc(CC(=O)O)n2C)cc1	0.999 ± 0.029
CCCCN(CCCC)CCCOC(=O)c1ccc(N)cc1	0.952 ± 0.054
CC(=O)OCC(=O)[C@@]1(O)CC[C@H]2[C@@H]3CCC4=CC(=O)C=C[C@]4(C)[C@@]3(Cl)[C@@H](Cl)C[C@@]21C	0.894 ± 0.024
Cc1nccnc1N1CCCCC1	0.952 ± 0.055
NNCCc1ccccc1	0.986 ± 0.067
CC(Cc1cccc(C(F)(F)F)c1)NCCOC(=O)c1ccccc1 (stereo unspecified)	0.937 ± 0.029
CCCc1cc(C(N)=S)ccn1	1.062 ± 0.003
CC(=O)S[C@@H]1CC2=CC(=O)CC[C@]2(C)[C@H]2CC[C@@]3(C)[C@@H](CC[C@@]34CCC(=O)O4)[C@H]12	1.01 ± 0.026
N=C(N)NC(=N)NCCc1ccccc1	1.09 ± 0.045
CN1CCC(=C2c3ccccc3C=Cc3ccccc32)CC1	1.82 ± 0.28
CN1CCN(CC/C=C2/c3ccccc3Sc3ccc(S(=O)(=O)N(C)C)cc32)CC1	1.11 ± 0.043
CC(C)(CO)[C@@H](O)C(=O)NCCC(=O)NCCSSCCNC(=O)CCNC(=O)[C@H](O)C(C)(C)CO	1.11 ± 0.015
C[C@H]1O[C@H](O[C@H]2[C@H](O)[C@@H](O)[C@@H](O[C@H]3[C@H](O)[C@@H](O)C(O)O[C@@H]3CO)O[C@@H]2CO)[C@H](O)[C@@H](O)[C@@H]1N[C@H]1C=C(CO)[C@@H](O)[C@H](O)[C@H]1O (stereo partly specified)	1.07 ± 0.011
O=C(O)c1cn(-c2ccc(F)cc2)c2cc(N3CCNCC3)c(F)cc2c1=O	0.0341 ± 0.0073
O=C(O)Cc1ccc(-c2ccccc2)cc1	1.07 ± 0.027
C[C@@H]1C[C@H]2[C@@H]3C[C@H](F)C4=CC(=O)C=C[C@]4(C)[C@@]3(F)[C@@H](O)C[C@]2(C)[C@@]1(O)C(=O)CO	0.909 ± 0.0093

No new results follow: 5 of the compounds above.
Structure (SMILES)	normalized growth
CCCc1cc(C(N)=S)ccn1	1.062 ± 0.003
CC(=O)S[C@@H]1CC2=CC(=O)CC[C@]2(C)[C@H]2CC[C@@]3(C)[C@@H](CC[C@@]34CCC(=O)O4)[C@H]12	1.01 ± 0.026
N=C(N)NC(=N)NCCc1ccccc1	1.09 ± 0.045
CN1CCC(=C2c3ccccc3C=Cc3ccccc32)CC1	1.82 ± 0.28
CN1CCN(CC/C=C2/c3ccccc3Sc3ccc(S(=O)(=O)N(C)C)cc32)CC1	1.11 ± 0.043

The list continues:

Structure (SMILES)	normalized growth
CC(=O)OCC(=O)[C@@]1(O)[C@@H](C)C[C@H]2[C@@H]3CCC4=CC(=O)C=C[C@]4(C)[C@@]3(F)[C@@H](O)C[C@@]21C	1.01 ± 0.033
CN1CCN(C2=Nc3ccccc3Oc3ccc(Cl)cc32)CC1	1.08 ± 0.016
CC(C)CC(N)=O	0.914 ± 0.044
COc1c2occc2cc2ccc(=O)oc12	1.16 ± 0.073
NCc1ccccc1CC(=O)N[C@@H]1C(=O)N2C(C(=O)O)=C(CSc3nnnn3CC(=O)O)CS[C@H]12	1.14 ± 0.021
N=C(NCCCCCCNC(=N)NC(=N)Nc1ccc(Cl)cc1)NC(=N)Nc1ccc(Cl)cc1	0.997 ± 0.24
N#Cc1ccc(C(c2ccc(C#N)cc2)n2cncn2)cc1	0.907 ± 0.015
Clc1ccc(CCC(Cn2ccnc2)Sc2c(Cl)cccc2Cl)cc1 (stereo unspecified)	0.924 ± 0.024
C[N+]1(C)CCC(OC(=O)C(O)(c2ccccc2)C2CCCC2)C1 (stereo unspecified)	1.062 ± 0.0045
CN(C)CCCN1c2ccccc2Sc2ccc(C(F)(F)F)cc21	1.09 ± 0.027
CCCCC(O)c1ccccc1 (stereo unspecified)	0.984 ± 0.032
CC(N/C(=N\C#N)Nc1ccncc1)C(C)(C)C (stereo unspecified)	0.967 ± 0.059
CC1(C)OC(=O)C(OCC2CC2)=C1c1ccc(S(C)(=O)=O)cc1	1.13 ± 0.025
CCN(CC)CCOC(=O)C1(C2CCCCC2)CCCCC1	1.03 ± 0.043
CCCCOCCOCCOCc1cc2c(cc1CCC)OCO2	0.935 ± 0.043
Oc1cc(O)c2c(c1)O[C@H](c1ccc(O)c(O)c1)[C@@H](O)C2	1.04 ± 0.046
CC(=O)Oc1ccccc1C(=O)Nc1ncc([N+](=O)[O-])s1	1.14 ± 0.045
CO[C@H]1C[C@H](O[C@H]2[C@H](C)O[C@@H](O[C@@H]3/C(C)=C/C[C@@H]4C[C@@H](C[C@]5(C=C[C@H](C)[C@@H](C6CCCCC6)O5)O4)OC(=O)[C@@H]4C=C(C)[C@@H](O)[C@H]5OC/C(=C\C=C\[C@@H]3C)[C@]54O)C[C@@H]2OC)O[C@@H](C)[C@@H]1O	0.776 ± 0.03
O=C1c2c(O)cccc2Cc2cccc(O)c21	0.968 ± 0.033
CC[N+](C)(CC)CCOC(=O)C(O)(c1ccccc1)C1CCCCC1 (stereo unspecified)	1.1 ± 0.03

Among those listed so far, two have an aryl methoxy group:
Structure (SMILES)	normalized growth
C=CCc1ccc(O)c(OC)c1	1.12 ± 0.12
COc1c2occc2cc2ccc(=O)oc12	1.16 ± 0.073
